Experimental data as given in patent US20080171051A1, “Cancer Treatment” (priority 2003, published 2008).
No constants are given. Whether binding was seen depends on the method and setting. Binding seen in cells or lysates may run through a third protein. Some entries that bind do so weakly or less than the wild type.

Chains of the proteins cited; added tags and fusions are not shown. Residues count along the entry.
UniProt P25445, residues 26-335: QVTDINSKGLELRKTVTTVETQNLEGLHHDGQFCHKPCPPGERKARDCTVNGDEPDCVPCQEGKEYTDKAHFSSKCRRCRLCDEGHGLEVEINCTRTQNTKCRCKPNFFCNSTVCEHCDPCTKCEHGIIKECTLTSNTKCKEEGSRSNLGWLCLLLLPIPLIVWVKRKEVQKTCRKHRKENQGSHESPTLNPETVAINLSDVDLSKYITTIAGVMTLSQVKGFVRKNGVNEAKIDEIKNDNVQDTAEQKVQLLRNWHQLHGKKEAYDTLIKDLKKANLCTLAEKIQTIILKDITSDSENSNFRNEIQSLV
UniProt P48023: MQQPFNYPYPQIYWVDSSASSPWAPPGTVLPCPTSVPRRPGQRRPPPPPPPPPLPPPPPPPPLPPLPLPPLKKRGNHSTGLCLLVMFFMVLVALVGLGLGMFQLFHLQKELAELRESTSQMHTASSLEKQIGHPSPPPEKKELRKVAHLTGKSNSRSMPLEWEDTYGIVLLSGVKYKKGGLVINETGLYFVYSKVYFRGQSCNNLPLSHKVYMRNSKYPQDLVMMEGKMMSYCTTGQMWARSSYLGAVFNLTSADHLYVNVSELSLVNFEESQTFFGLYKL

Target: Fas death receptor (UniProt P25445)
Assay: co-immunoprecipitation from MCF-7 lysates (IP FasL polyclonal antibody, Western blot Fas monoclonal antibody) after 5-FU or TDX

For “FasL (from UniProt P48023 1-281) (ligand)”, the binding was “binds”.
